Laboratory results as given in PMC9563141.
Results are given in words; binding and its absence hold for the method and conditions named. In cells and extracts the contact can be indirect. For part of these data: A result given as binding can be weak or reduced; the word gives no strength.

Tests used:
[1] = biological target: Flag-Beclin 1-ΔBH3; experiment: co-IP; 293FT cells co-transfected with Flag-Beclin 1 (FL) or a Beclin 1 deletion construct and MDM2, MDMX or RB; total cell lysates, IP-western
[2] = biological target: Flag-Beclin 1-ΔBH3ΔCCD; experiment: as above

binding [1]	binding [2]	Binder
binds	no binding	MDMX (transfected) (protein, UniProt O15151 1-490) MTSFSTSAQCSTSDSACRISPGQINQVRPKLPLLKILHAAGAQGEMFTVKEVMHYLGQYIMVKQLYDQQEQHMVYCGGDLLGELLGRQSFSVKDPSPLYDMLRKNLVTLATATTDAAQTLALAQDHSMDIPSQDQLKQSAEESSTSRKRTTEDDIPTLPTSEHKCIHSREDEDLIENLAQDETSRLDLGFEEWDVAGLPWWFLGNLRSNYTPRSNGSTDLQTNQDVGTAIVSDTTDDLWFLNESVSEQLGVGIKVEAADTEQTSEEVGKVSDKKVIEVGKNDDLEDSKSLSDDTDVEVTSEDEWQCTECKKFNSPSKRYCFRCWALRKDWYSDCSKLTHSLSTSDITAIPEKENEGNDVPDCRRTISAPVVRPKDAYIKKENSKLFDPCNSVEFLDLAHSSESQETISSMGEQLDNLSEQRTDTENMEDCQNLLKPCSLCEKRPRDGNIIHGRTGHLVTCFHCARRLKKAGASCPICKKEIQLVIKVFIA
–	no binding	RB (transfected) (protein, UniProt P06400 1-928) MPPKTPRKTAATAAAAAAEPPAPPPPPPPEEDPEQDSGPEDLPLVRLEFEETEEPDFTALCQKLKIPDHVRERAWLTWEKVSSVDGVLGGYIQKKKELWGICIFIAAVDLDEMSFTFTELQKNIEISVHKFFNLLKEIDTSTKVDNAMSRLLKKYDVLFALFSKLERTCELIYLTQPSSSISTEINSALVLKVSWITFLLAKGEVLQMEDDLVISFQLMLCVLDYFIKLSPPMLLKEPYKTAVIPINGSPRTPRRGQNRSARIAKQLENDTRIIEVLCKEHECNIDEVKNVYFKNFIPFMNSLGLVTSNGLPEVENLSKRYEEIYLKNKDLDARLFLDHDKTLQTDSIDSFETQRTPRKSNLDEEVNVIPPHTPVRTVMNTIQQLMMILNSASDQPSENLISYFNNCTVNPKESILKRVKDIGYIFKEKFAKAVGQGCVEIGSQRYKLGVRLYYRVMESMLKSEEERLSIQNFSKLLNDNIFHMSLLACALEVVMATYSRSTSQNLDSGTDLSFPWILNVLNLKAFDFYKVIESFIKAEGNLTREMIKHLERCEHRIMESLAWLSDSPLFDLIKQSKDREGPTDHLESACPLNLPLQNNHTAADMYLSPVRSPKKKGSTTRVNSTANAETQATSAFQTQKPLKSTSLSLFYKKVYRLAYLRLNTLCERLLSEHPELEHIIWTLFQHTLQNEYELMRDRHLDQIMMCSMYGICKVKNIDLKFKIIVTAYKDLPHAVQETFKRVLIKEEEYDSIIVFYNSVFMQRLKTNILQYASTRPPTLSPIPHIPRSPYKFPSSPLRIPGGNIYISPLKSPYKISEGLPTPTKMTPRSRILVSIGESFGTSEKFQKINQMVCNSDRVLKRSAEGSNPPKPLKKLRFDIEGSDEADGSKHLPGESKFQQKLAEMTSTRTRMQKQKMNDSMDTSNKEEK
